Assay results: PubChem BioAssay AID540256 (National Center for Advancing Translational Sciences (NCATS), 2011)
The whole screen tested about 300,000 compounds, of which about 3,700 (1.2%) were called active. Inconclusive results, whose numbers are uncertain, are shown with a selection of clear calls. The call rests on the fitted dose curve; tested in HEK293 cells. Potencies of inconclusive entries are doubtful fits and often do not repeat.

Assay: qHTS for Inhibitors of binding or entry into cells for Lassa Virus; further: nearly all actives have a fitted effect of over 50% in size
Conditions: Lassa virus pseudotype entry inhibition, cell reporter; activity change, negative = inhibition: at 37.9 µM (top of the series) unless noted
On the % scale 0 is the no-effect control and ±100 the full control effect; potency means the concentration at half of the fitted maximal effect.

Row | Compound | activity change, negative = inhibition | Potency
1 | CCOC(=O)c1ccc2nc(C)c3c(c2c1)OC(C)C3 (stereo unspecified) | inactive: -26% | –
2 | Cc1ccc(CN2C3CCCC2CC(NC(=S)NCc2ccccc2)C3)cc1 (stereo unspecified) | – | inconclusive: 10 µM [inhibitor, partial curve, poor fit]
3 | CCN(CC)C(=O)c1ccc2nc3ccccc3nc2c1 | inactive: 20.9% | –
4 | CC1=C(C(=O)N2CCc3ccccc32)C2(CCC(C)CC2)OC1=O (stereo unspecified) | inactive: -20.1% | –
5 | CCc1ccccc1NC(=O)CN(c1ccc(OC)cc1OC)S(=O)(=O)c1ccccc1[N+](=O)[O-] | – | inconclusive: 11.2 µM [inhibitor, partial curve, poor fit]
6 | O=C(O)c1ccc(S(=O)(=O)c2ccc3c(c2)C(=O)N(NC(=O)c2ccncc2)C3=O)cc1 | inactive: 1.58% | –
7 | N#CC(c1ccc(O)cc1)N1CCN(C(C#N)c2ccc(O)cc2)CC1 (stereo unspecified) | inactive: 4.54% | –
8 | Cc1cccc(C)c1NC(=O)Cn1nnc(-c2ccc(CN3CCC(C)CC3)cc2)n1 | – | inconclusive: 3.55 µM [inhibitor, single point]
9 | CC(=O)N1[C@H](Cc2ccccc2)C=C[C@]1(C)C(=O)NCc1ccc(C)o1 | inactive: -0.106% | –
10 | Cc1cccc(/C=C/c2onc(C)c2S(=O)(=O)N2CCC(C(=O)N3CCC(C)CC3)CC2)c1 | – | inconclusive: 1.58 µM [inhibitor, partial curve, poor fit]
11 | FC(F)(F)c1ccccc1-n1ccnc1 | – | inconclusive: 8.2 µM [activator, partial curve, poor fit]
12 | CCCCNCc1nc2ccccc2c(=O)[nH]1 | inactive: 13.5% | –
13 | COc1cccc(CNC(=S)NC2CCCC2)c1 | inactive: 8.36% | –
14 | Cc1cc2nc(-c3ccc(SCC(=O)Nc4nccs4)nc3)[nH]c2cc1C | – | inconclusive: 1.46 µM [activator, full curve, poor fit]
15 | COc1ccc(N2C(=O)C(=O)/C(=C(/O)c3ccc(C)cc3)C2c2cccnc2)cc1 (stereo unspecified) | – | inconclusive: 12.6 µM [activator, partial curve]
16 | Cc1c(C(=S)Nc2ccccc2)cnn1-c1ccccc1 | inactive: 1.48% | –
17 | CCC(CC)C(=O)Nc1cccc(-c2nc3cccnc3s2)c1C | inactive: 6.71% [at 46.1 µM] | –
18 | CCC(=O)NC(c1ccccc1OC)c1ccc2cccnc2c1O (stereo unspecified) | – | inconclusive: 2.31 µM [inhibitor, full curve, poor fit]
19 | OCC1(CC2CCCCO2)CCN(Cc2ccccc2-c2ccco2)CC1 (stereo unspecified) | – | inconclusive: 7.08 µM [inhibitor, partial curve, poor fit]
20 | Cc1ccccc1-c1nn(-c2ccc(F)cc2F)cc1CNCCCO | – | inconclusive: 28.2 µM [inhibitor, single point]
21 | Cc1cccc(NCC(=O)N/N=C\c2cccc(Oc3ccccc3)c2)c1 | – | inconclusive: 8.2 µM [inhibitor, partial curve]
